Data on one substance can be found in publication PMC8745740.

Results are given in words; binding and its absence hold for the method and conditions named. In cells and extracts the contact can be indirect. Binding can be weak; no strength is given. Sequences can lack the tags named with a protein.

This assay addresses T1, HopAU1-GFP fusion protein (Pseudomonas syringae pv. actinidiae strain M228) (UniProt G9I6Y2).
T1 sequence: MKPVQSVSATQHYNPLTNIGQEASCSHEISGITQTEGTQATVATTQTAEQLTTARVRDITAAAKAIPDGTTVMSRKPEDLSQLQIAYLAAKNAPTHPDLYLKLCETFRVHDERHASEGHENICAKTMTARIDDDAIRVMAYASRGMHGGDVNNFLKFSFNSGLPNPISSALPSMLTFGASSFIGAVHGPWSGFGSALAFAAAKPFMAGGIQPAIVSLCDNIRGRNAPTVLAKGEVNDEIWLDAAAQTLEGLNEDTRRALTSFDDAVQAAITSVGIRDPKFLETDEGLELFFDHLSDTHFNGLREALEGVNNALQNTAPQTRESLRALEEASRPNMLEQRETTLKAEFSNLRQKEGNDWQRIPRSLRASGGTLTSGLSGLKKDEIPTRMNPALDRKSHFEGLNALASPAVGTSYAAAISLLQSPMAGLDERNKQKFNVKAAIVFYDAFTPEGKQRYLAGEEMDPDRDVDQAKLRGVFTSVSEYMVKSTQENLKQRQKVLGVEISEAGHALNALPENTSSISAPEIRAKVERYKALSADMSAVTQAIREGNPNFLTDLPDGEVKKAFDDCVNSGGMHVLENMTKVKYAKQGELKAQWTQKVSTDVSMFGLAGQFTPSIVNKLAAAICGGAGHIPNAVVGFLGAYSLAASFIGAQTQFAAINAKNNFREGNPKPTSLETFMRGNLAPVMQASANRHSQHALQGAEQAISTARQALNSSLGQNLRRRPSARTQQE
The assay is described as follows: co-IP; HopAU1-GFP and CaS-mCherry transiently co-expressed in N. benthamiana, total protein extracted after 2 days; incubated with anti-GFP magnetic beads (GFP-Trap, ChromoTek) for 2 h at 4 °C; western blot with anti-GFP and anti-mCherry. (A western blot detects proteins with antibodies after separation by electrophoresis.)

Consider “AcCaS (homologue of the calcium sensing receptor in kiwifruit)”, for which the binding entry is on record as “binds”.
